The record followed here is US20240336701A1.

The target in this assay is T1, human ENTPD1 (CD39), full length, on NIH/3T3 cells (human) (UniProt P49961).
T1 sequence: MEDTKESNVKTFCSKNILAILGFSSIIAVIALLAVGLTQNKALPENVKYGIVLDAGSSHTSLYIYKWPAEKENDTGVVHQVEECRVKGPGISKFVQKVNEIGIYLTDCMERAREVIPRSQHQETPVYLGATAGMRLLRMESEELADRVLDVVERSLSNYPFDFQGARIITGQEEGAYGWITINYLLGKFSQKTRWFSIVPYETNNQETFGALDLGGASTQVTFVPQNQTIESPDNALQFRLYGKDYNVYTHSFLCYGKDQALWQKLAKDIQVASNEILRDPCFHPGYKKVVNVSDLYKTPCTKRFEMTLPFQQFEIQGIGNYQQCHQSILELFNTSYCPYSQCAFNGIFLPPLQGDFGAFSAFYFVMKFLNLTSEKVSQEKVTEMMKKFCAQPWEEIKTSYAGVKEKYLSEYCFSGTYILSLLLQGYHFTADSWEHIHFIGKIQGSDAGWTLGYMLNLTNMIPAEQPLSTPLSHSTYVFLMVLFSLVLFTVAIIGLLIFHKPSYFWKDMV
As to the kind of experiment: flow cytometry, NIH/3T3 cells expressing human ENTPD1.

No constants are given. Whether binding was seen depends on the method and setting.

B1: ANTI-HUMAN ENTPD2 MAB8 (antibody, human IgG1, lambda, V domains shown)
VH: QVQLQQSGPGLVKPSQTLSLTCAISGDSVSSSSAAWNWIRQSPSRGLEWLGRIYYRSKWYNDYAVSVKSRITINPDTSKNQFSLQLNSVTPEDTAVYYCARGSYVTSSYEGFDYWGQGTLVTVSS
VL: SYELTQPLSVSVALGQTARITCSGDNLPEKYAYWYQQKPGQAPVLVIYDDNKRPSGIPERFSGSNSGNTATLTISRAQAGDEADYYCQSYGKWGWTWVFGGGTKLTVLG
Turning to B1, the binding result was “no binding (tested: >100 nM)”.
